Earlier results as cited in patent US5358942A, “Inhibition of protein kinase C with Cyclic phosphonate compounds” (Louisiana State University, priority 1993, dated 1994).
At least one structure is not confirmed: it was looked up by name or label, or the drawing left a doubt. Some entries repeat one wording, which the source may state once for all of them.

details: in vivo

Row | Structure (SMILES) | effect on blood ketone and blood glucose concentrations
1 | CCCCCCCCCCCCCCC1(C(=O)SCCNC(=O)CCNC(=O)[C@H](O)C(C)(C)COP(=O)(O)OP(=O)(O)OC[C@H]2O[C@@H](n3cnc4c(N)ncnc43)[C@H](O)[C@@H]2OP(=O)(O)O)CO1 (stereo partly drawn) [2-tetradecylglycidyl-CoA] | decrease blood ketone and blood glucose concentrations in vivo
2 | C[N+](C)(C)CC(N)CC(=O)[O-] (stereo not drawn) [aminocarnitine] | decrease blood ketone and blood glucose concentrations in vivo
3 | CCCCCCCCCCCCCCCC(=O)N[C@H](CC(=O)[O-])C[N+](C)(C)C [palmitoylaminocarnitine] | decrease blood ketone and blood glucose concentrations in vivo
